Results from one PubChem assay

Data taken from PubChem BioAssay AID1159506, deposited by NCATS (2015).

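Genome-wide siRNA knockdown in TC32 Ewing sarcoma cells, comparing luciferase light from an NR0B1-promoter reporter with a CMV-promoter reporter 48 hours after transfection. Each siRNA was applied at 20 nM. A z-score of the log NR0B1-over-CMV signal, less the median of siRNAs with the same seed; more negative means a stronger specific loss of the NR0B1 reporter.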

This is part of the screen; most of the strongest results are not listed here. Sequences are the guide (antisense) strand, without overhang.

UUAGAUGUGACACCACUAC against CCDC158 gave seed-corrected z-score -0.07108.
UGAUUGCGCACUGCUGAGG against PHF1 gave seed-corrected z-score -0.5988.
UCUAAUGUCAGGUGCAUCC against UBQLN3 gave seed-corrected z-score -0.2312.
UCGUCCAUCAUGUUGACUG against WRB gave seed-corrected z-score -0.1253.
UACAUUAUAAGGCCUUACC against KHK gave seed-corrected z-score -0.8671.
UUCUUUAAUCCGAUUCAGG against LCN9 gave seed-corrected z-score -0.7086.
AUCGUGACGAAAAUGUCUG against BUD13 gave seed-corrected z-score 1.113.
UACUUGACCUUGGAUCUGC against TGM4 gave seed-corrected z-score -0.8066.
UGAUCUGACCGGGAAAAGC against KLF12 gave seed-corrected z-score 0.8266.
UGGUGUAGUAUGGACAGCC against LOC649133 gave seed-corrected z-score -0.285.
UGUACACUGACGACAAGCC against SLC35A4 gave seed-corrected z-score 0.02112.
AUGUUAGUAAAGAAUAUCC against ZWILCH gave seed-corrected z-score 0.1854.
AUCGGUCUUAUUAACGGGC against ATG2B gave seed-corrected z-score 0.03109.
UCCACUCUUAGAGCUUUCU against LOC651337 gave seed-corrected z-score 1.758.
UCCUUUAGCAGCACAUUCU against PALM2-AKAP2 gave seed-corrected z-score 0.3792.
AUCUUUGACUCUGAGAUCU against TAGLN3 gave seed-corrected z-score 0.6727.
AAUUUGACAGAUAAAUUCC against LOC728114 gave seed-corrected z-score 0.1634.
UACUGCAUUAAAAUCUUCU against LINC00520 gave seed-corrected z-score -1.113.
UCCAUAACAAGUUCUAGGG against ADPRM gave seed-corrected z-score 0.02535.
UCCUUGAUGAACAUGAGCU against FAM50B gave seed-corrected z-score -0.4023.
UUAAUAACUUCCUCCAUCC against RLN2 gave seed-corrected z-score 0.2019.
UGAGGGUAAACAGGGAACC against FLRT1 gave seed-corrected z-score -0.031.
UCUUUAUCAUCAUAAACCU against NDUFS6 gave seed-corrected z-score 0.1118.
UCCUUGAAUUGAUCUCUGC against PLVAP gave seed-corrected z-score -0.02469.
UCCUCAGACAGCUCAAUGC against MOSPD3 gave seed-corrected z-score 0.07115.
UUACGGAUCAGGUUGGUGG against HLA-DPB1 gave seed-corrected z-score -0.2303.
UCGGUGAUGAGCUUGAUAC against IDH3A gave seed-corrected z-score -1.003.
ACCGGCUUGAGAGCGAUCA against POU4F3 gave seed-corrected z-score -1.24.
UUCAAAACCUUUGAUGACU against FKBP1B gave seed-corrected z-score -1.072.
UAUAUUGGGACAUGGAUCU against GJB5 gave seed-corrected z-score 0.8587.
UCAGUUUCGACUCCAGGCU against ADGRG1 gave seed-corrected z-score -0.9805.
ACAGUUAUCGCGAGAGUCC against NRTN gave seed-corrected z-score 0.6689.
AACACGAUCAAAGAUAUCC against MLEC gave seed-corrected z-score 0.4949.
UCACCAAGAACAAAUUACC against MTNR1B gave seed-corrected z-score 1.819.

For reference, 4 entries once more:

| Sequence | target gene | seed-corrected z-score |
|---|---|---|
| `UCUUUAUCAUCAUAAACCU` | NDUFS6 | 0.1118 |
| `AUCGGUCUUAUUAACGGGC` | ATG2B | 0.03109 |
| `UCCAUAACAAGUUCUAGGG` | ADPRM | 0.02535 |
| `AUCGUGACGAAAAUGUCUG` | BUD13 | 1.113 |